These results are taken from paper PMC4577729, “7-(Pyrazol-4-yl)-3H-imidazo[4,5-b]pyridine-based derivatives for kinase inhibition: Co-crystallisation studies with Aurora-A reveal distinct differences in the orientation of the pyrazole N1-substituent” (Bioorganic & Medicinal Chemistry Letters, 2015).

The test system of this data set is 102-/105-kinase panel. The data set can be described thus: Kinase selectivity profiling, whole panel. It is filed as biochemical.

Structures are written as SMILES.

Turning to `Cc1cc(CN2CCN(c3c(Br)cnc4[nH]c(-c5ccc(N6CCN(C)CC6)cc5)nc34)CC2)no1` [Compound 1, reference compound], the Gini coefficient (previously reported inhibitor, panel not stated) is recorded as 0.560.
In the case of `Cc1nn(C)cc1-c1nc2c(-c3cnn(Cc4ccccc4)c3)c(Cl)cnc2[nH]1` [Compound 7a], the Gini coefficient (102-kinase panel, 1 μM) worked out at 0.273.
Turning to `Cc1cc(Cn2cc(-c3c(Cl)cnc4[nH]c(-c5cn(C)nc5C)nc34)cn2)no1` [Compound 14d], where the note is “105-kinase panel, 1 μM”, the Gini coefficient stood at 0.320 and the “number of kinases inhibited by ⩾80%” value is reported as 22.
